According to US5994087A, “Mammalian melanocortin receptors and uses” (Oregon Health Sciences University, priority 1995, dated 1999):
At least one structure is not confirmed: it was looked up by name or label, or the drawing left a doubt. Residues, ends and D or L forms follow the SMILES beside them.

Protein sequences, listed by entry. Tags and fused reporters are not part of them. Lines headed by an entry give the natural chain unless they say otherwise; changes in a name come on top.
UniProt P32244: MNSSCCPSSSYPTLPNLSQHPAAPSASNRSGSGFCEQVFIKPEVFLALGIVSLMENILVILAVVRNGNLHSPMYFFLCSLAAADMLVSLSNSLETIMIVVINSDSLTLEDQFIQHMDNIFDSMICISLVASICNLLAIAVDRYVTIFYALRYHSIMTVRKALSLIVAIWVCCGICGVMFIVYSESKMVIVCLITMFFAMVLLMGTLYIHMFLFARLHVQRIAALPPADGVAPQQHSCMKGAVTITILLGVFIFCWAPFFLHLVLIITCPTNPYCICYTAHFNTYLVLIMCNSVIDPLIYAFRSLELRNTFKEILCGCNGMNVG

Target: rat MC3-R (Rattus norvegicus, UniProt P32244)
Test: Intracellular cAMP production in recombinant MC3-R expressing human 293 cells
Assay type: cell-based
Conditions: 293 cells expressing rat MC3-R, 1h at 37° C., 0.5 mM IBMX

With CSCC[C@H](NC(=O)[C@@H](NC(=O)[C@@H](N)Cc1ccc(O)cc1)C(C)C)C(=O)NCC(=O)N[C@@H](Cc1c[nH]cn1)C(=O)N[C@@H](Cc1ccccc1)C(=O)N[C@@H](CCCNC(=N)N)C(=O)N[C@@H](Cc1c[nH]c2ccccc12)C(=O)N[C@@H](CC(=O)O)C(=O)N[C@@H](CCCNC(=N)N)C(=O)N[C@@H](Cc1ccccc1)C(=O)NCC(=O)N[C@@H](CCCNC(=N)N)C(=O)N[C@@H](CCCNC(=N)N)C(=O)N[C@@H](CC(N)=O)C(=O)NCC(=O)N[C@@H](CO)C(=O)N[C@@H](CO)C(=O)N[C@@H](CO)C(=O)N[C@@H](CO)C(=O)NCC(=O)N[C@H](C(=O)NCC(=O)NCC(=O)N[C@@H](C)C(=O)N[C@@H](C)C(=O)N[C@@H](CCC(N)=O)C(=O)O)C(C)C [γ3 -MSH] (H-YVMGHFRWDRFGRRNGSSSSGVGGAAQ-OH; N-terminus and C-terminus assumed) the EC50 was 6 nM.
